Assay results reported in patent US20210395361A1 (Alector, published 2021).
Results are given in words; binding and its absence hold for the method and conditions named. Some results given as binding are weak or reduced against the parent protein; the word gives no strength.

What was measured:
Test in all cases: ELISA on arrays of linear Siglec-5 peptides
[1] = molecular target: T1, Siglec-5 peptide … (human)
T1 sequence (peptide): ITIFRNGIALE

[2] = molecular target: T2, Siglec-5 peptide … (human); remark: listed apart in the source
T2 sequence (peptide): QTITIFRNGIALEILQNTS

[3] = molecular target: T3, Siglec-5 peptide … (human); remark: listed apart in the source
T3 sequence (peptide): LSWFQGSPALN

[4] = molecular target: T4, Siglec-5 peptide … (human); remark: listed apart in the source
T4 sequence (peptide): PCSFSYPWRSWYSS

B1: S5-G-10 (antibody, V domains shown)
VH: QAYLQQSGAELVKPGASVKLSCKASGYIFTEYTIHWVKQRSGQGLEWIGWFYPGSGSIKYNEKFKDKATLTADKSSSTVYMELSRLTSEDSAVYFCATHERAAQAAWSAYWGQGTLVTVSA
VL: DVQMNQSPASLSASVGETVTITCRASGNIHNYLAWYQQKQGKSPQLLVYNAKTLTDGVPSRFSGSGSGTQYSLKINTLQPEDFGSYYCQHFWSTPYTFGGGTKLEMK
notes: Mouse-derived variable domains; expressed in mammalian cells as full antibody; hIgG1 isotype control
**Q.** For B1, which binding [1] is on record?
**A.** binds

B2: S5-G-07 (antibody, V domains shown)
VH: QAYLQQSGAELARPGASVKMSCKASGYTFSSYTMYWVKQRPGQGLEWIGYINPSSGYTEYNQKFKDKATLTADKSSSTAYMQLISLTSEDSAVYYCARSDSKGDYWGQGTTLTVSS
VL: DVVMTQSPSSLSASLGERVSLTCRASQDIGNSLNWLQQEPDGTIKRLISATSSLDSGVPKRFSGSRSGSDYSLTISSLESEDFVDYYCLQYASSPLTFGAGTKLELK
notes: Mouse-derived variable domains; expressed in mammalian cells as full antibody; hIgG1 isotype control; also called SG-5-07
**Q.** Which binding [2] does the source give for B2 here?
**A.** binds

B3: S5-202 (antibody, V domains shown)
VH: QAYLQQSGPGLVAPSQSLSITCTVSGLSLTSYGVSWVRQPPGKGLEWLGVIWGDGSTNYHSALISRLSISKDNSKSQVFLKLNSLQTDDTATYYCAKPGAFYYGSRYYWYFDVWGTGTTVTVSS
VL: DIQMTQAHKVMSTSVGDRVSITCKASQDVSTAVAWYQQKPGQSPKLLIYSASYRYTGVPDRFTGSGSGTDFTFTISSVQAEDLAVYYCQQHYSPPPTFGGGTRREIK
notes: Mouse-derived variable domains; expressed in mammalian cells as full antibody; also called S5-PN202
**Q.** For B3, which binding [3] is on record?
**A.** binds

B4: Antibody 8A1 (antibody, V domains shown)
VH: EIQLQQSGPELVKPGASVKVSCKASDYAFTSYNIYWVKQSHGKSLEWIGYIDPYNGGTSYNQTFKGKATLTVDKSSSTAYMHLNSLTSEDSAVYYCAMKVGYEAMDYWGQGTSVTVSS
VL: DIVMTQSQKFMSTSVGDRVSVTCKASQNVGTYVAWYQQKPGQSPKALIYSASYRYSGVPDRFTGSGSGTDFTLNISNVQSEDLAEYFCQQFNSYPYTFGGGTKLEIK
**Q.** For B4, which binding [4] is on record?
**A.** binds
